B1: SPB13_HUMAN (protein, UniProt Q9UIV8 1-391, looked up)
Serpin B13: MDSLGAVSTRLGFDLFKELKKTNDGNIFFSPVGILTAIGMVLLGTRGATASQLEEVFHSEKETKSSRIKAEEKEVIENTEAVHQQFQKFLTEISKLTNDYELNITNRLFGEKTYLFLQKYLDYVEKYYHASLEPVDFVNAADESRKKINSWVESKTNEKIKDLFPDGSISSSTKLVLVNMVYFKGQWDREFKKENTKEEKFWMNKSTSKSVQMMTQSHSFSFTFLEDLQAKILGIPYKNNDLSMFVLLPNDIDGLEKIIDKISPEKLVEWTSPGHMEERKVNLHLPRFEVEDGYDLEAVLAAMGMGDAFSEHKADYSGMSSGSGLYAQKFLHSSFVAVTEEGTEAAAATGIGFTVTSAPGHENVHCNHPFLFFIRHNESNSILFFGRFSSP
B2: SPB5_HUMAN (protein, UniProt P36952 1-375, looked up)
Serpin B5: MDALQLANSAFAVDLFKQLCEKEPLGNVLFSPICLSTSLSLAQVGAKGDTANEIGQVLHFENVKDVPFGFQTVTSDVNKLSSFYSLKLIKRLYVDKSLNLSTEFISSTKRPYAKELETVDFKDKLEETKGQINNSIKDLTDGHFENILADNSVNDQTKILVVNAAYFVGKWMKKFSESETKECPFRVNKTDTKPVQMMNMEATFCMGNIDSINCKIIELPFQNKHLSMFILLPKDVEDESTGLEKIEKQLNSESLSQWTNPSTMANAKVKLSIPKFKVEKMIDPKACLENLGLKHIFSEDTSDFSGMSETKGVALSNVIHKVCLEITEDGGDSIEVPGARILQHKDELNADHPFIYIIRHNKTRNIIFFGKFCSP
B3: TALDO_HUMAN (protein, UniProt P37837 1-337, looked up)
Transaldolase: MSSSPVKRQRMESALDQLKQFTTVVADTGDFHAIDEYKPQDATTNPSLILAAAQMPAYQELVEEAIAYGRKLGGSQEDQIKNAIDKLFVLFGAEILKKIPGRVSTEVDARLSFDKDAMVARARRLIELYKEAGISKDRILIKLSSTWEGIQAGKELEEQHGIHCNMTLLFSFAQAVACAEAGVTLISPFVGRILDWHVANTDKKSYEPLEDPGVKSVTKIYNYYKKFSYKTIVMGASFRNTGEIKALAGCDFLTISPKLLGELLQDNAKLVPVLSAKAAQASDLEKIHLDEKSFRWLHNEDQMAVEKLSDGIRKFAADAVKLERMLTERMFNAENGK
B4: TYPH_HUMAN (protein, UniProt P19971 11-482, looked up)
Thymidine phosphorylase: APPAPGDFSGEGSQGLPDPSPEPKQLPELIRMKRDGGRLSEADIRGFVAAVVNGSAQGAQIGAMLMAIRLRGMDLEETSVLTQALAQSGQQLEWPEAWRQQLVDKHSTGGVGDKVSLVLAPALAACGCKVPMISGRGLGHTGGTLDKLESIPGFNVIQSPEQMQVLLDQAGCCIVGQSEQLVPADGILYAARDVTATVDSLPLITASILSKKLVEGLSALVVDVKFGGAAVFPNQEQARELAKTLVGVGASLGLRVAAALTAMDKPLGRCVGHALEVEEALLCMDGAGPPDLRDLVTTLGGALLWLSGHAGTQAQGAARVAAALDDGSALGRFERMLAAQGVDPGLARALCSGSPAERRQLLPRAREQEELLAPADGTVELVRALPLALVLHELGAGRSRAGEPLRLGVGAELLVDVGQRLRRGTPWLRVHRDGPALSGPQSRALQEALVLSDRAPFAAPSPFAELVLPPQQ
B5: LMTK3_HUMAN (protein, UniProt Q96Q04 21-1460, looked up)
Serine/threonine-protein …: SPAHPDGFALGRAPLAPPYAVVLISCSGLLAFIFLLLTCLCCKRGDVGFKEFENPEGEDCSGEYTPPAEETSSSQSLPDVYILPLAEVSLPMPAPQPSHSDMTTPLGLSRQHLSYLQEIGSGWFGKVILGEIFSDYTPAQVVVKELRASAGPLEQRKFISEAQPYRSLQHPNVLQCLGLCVETLPFLLIMEFCQLGDLKRYLRAQRPPEGLSPELPPRDLRTLQRMGLEIARGLAHLHSHNYVHSDLALRNCLLTSDLTVRIGDYGLAHSNYKEDYYLTPERLWIPLRWAAPELLGELHGTFMVVDQSRESNIWSLGVTLWELFEFGAQPYRHLSDEEVLAFVVRQQHVKLARPRLKLPYADYWYDILQSCWRPPAQRPSASDLQLQLTYLLSERPPRPPPPPPPPRDGPFPWPWPPAHSAPRPGTLSSPFPLLDGFPGADPDDVLTVTESSRGLNLECLWEKARRGAGRGGGAPAWQPASAPPAPHANPSNPFYEALSTPSVLPVISARSPSVSSEYYIRLEEHGSPPEPLFPNDWDPLDPGVPAPQAPQAPSEVPQLVSETWASPLFPAPRPFPAQSSASGSFLLSGWDPEGRGAGETLAGDPAEVLGERGTAPWVEEEEEEEEGSSPGEDSSSLGGGPSRRGPLPCPLCSREGACSCLPLERGDAVAGWGGHPALGCPHPPEDDSSLRAERGSLADLPMAPPASAPPEFLDPLMGAAAPQYPGRGPPPAPPPPPPPPRAPADPAASPDPPSAVASPGSGLSSPGPKPGDSGYETETPFSPEGAFPGGGAAEEEGVPRPRAPPEPPDPGAPRPPPDPGPLPLPGPREKPTFVVQVSTEQLLMSLREDVTRNLLGEKGATARETGPRKAGRGPGNREKVPGLNRDPTVLGNGKQAPSLSLPVNGVTVLENGDQRAPGIEEKAAENGALGSPEREEKVLENGELTPPRREEKALENGELRSPEAGEKVLVNGGLTPPKSEDKVSENGGLRFPRNTERPPETGPWRAPGPWEKTPESWGPAPTIGEPAPETSLERAPAPSAVVSSRNGGETAPGPLGPAPKNGTLEPGTERRAPETGGAPRAPGAGRLDLGSGGRAPVGTGTAPGGGPGSGVDAKAGWVDNTRPQPPPPPLPPPPEAQPRRLEPAPPRARPEVAPEGEPGAPDSRAGGDTALSGDGDPPKPERKGPEMPRLFLDLGPPQGNSEQIKARLSRLSLALPPLTLTPFPGPGPRRPPWEGADAGAAGGEAGGAGAPGPAEEDGEDEDEDEEEDEEAAAPGAAAGPRGPGRARAAPVPVVVSSADADAARPLRGLLKSPRGADEPEDSELERKRKMVSFHGDVTVYLFDQETPTNELSVQAPPEGDTDPSTPPAPPTPPHPATPGDGFPSNDSGFGGSFEWAEDFPLLPPPGPPLCFSRFSVSPALETPGPPARAPDARPAGPVEN
B6: THIO_HUMAN (protein, UniProt P10599 2-105, looked up)
Thioredoxin: VKQIESKTAFQEALDAAGDKLVVVDFSATWCGPCKMIKPFFHSLSEKYSNVIFLEVDVDDCQDVASECEVKCMPTFQFFKKGQKVGEFSGANKEKLEATINELV
B7: SSBP_HUMAN (protein, UniProt Q04837 17-148, looked up)
Single-stranded DNA-binding …: ESETTTSLVLERSLNRVHLLGRVGQDPVLRQVEGKNPVTIFSLATNEMWRSGDSEVYQLGDVSQKTTWHRISVFRPGLRDVAYQYVKKGSRIYLEGKIDYGEYMDKNNVRRQATTIIADNIIFLSDQTKEKE
B8: SPB3_HUMAN (protein, UniProt P29508 1-390, looked up)
Serpin B3: MNSLSEANTKFMFDLFQQFRKSKENNIFYSPISITSALGMVLLGAKDNTAQQIKKVLHFDQVTENTTGKAATYHVDRSGNVHHQFQKLLTEFNKSTDAYELKIANKLFGEKTYLFLQEYLDAIKKFYQTSVESVDFANAPEESRKKINSWVESQTNEKIKNLIPEGNIGSNTTLVLVNAIYFKGQWEKKFNKEDTKEEKFWPNKNTYKSIQMMRQYTSFHFASLEDVQAKVLEIPYKGKDLSMIVLLPNEIDGLQKLEEKLTAEKLMEWTSLQNMRETRVDLHLPRFKVEESYDLKDTLRTMGMVDIFNGDADLSGMTGSRGLVLSGVLHKAFVEVTEEGAEAAAATAVVGFGSSPTSTNEEFHCNHPFLFFIRQNKTNSILFYGRFSSP
B9: SBSN_HUMAN (protein, UniProt Q6UWP8 26-590, looked up)
Suprabasin: DDPIEKVIEGINRGLSNAEREVGKALDGINSGITHAGREVEKVFNGLSNMGSHTGKELDKGVQGLNHGMDKVAHEINHGIGQAGKEAEKLGHGVNNAAGQVGKEADKLIHHGVHHGANQAGSEAGKFGQGVDNAAGQAGNEAGRFGQGVHHAAGQAGNEAGRFGQGVHHAAGQAGNEAGRFGQGAHHGLSEGWKETEKFGQGIHHAAGQVGKEAEKFGQGAHHAAGQAGNEAGRFGQGVHHGLSEGWKETEKFGQGVHHTAGQVGKEAEKFGQGAHHAAGQAGNEAGRFGQGAHHAAGQAGNEAGRFGQGVHHGLSEGWKETEKFGQGVHHAASQFGKETEKLGHGVHHGVNEAWKEAEKFGQGVHHAASQVGKEEDRVVQGLHHGVSQAGREAGQFGHDIHHTAGQAGKEGDIAVHGVQPGVHEAGKEAGQFGQGVHHTLEQAGKEADKAVQGFHTGVHQAGKEAEKLGQGVNHAADQAGKEVEKLGQGAHHAAGQAGKELQNAHNGVNQASKEANQLLNGNHQSGSSSHQGGATTTPLASGASVNTPFINLPALWRSVANIMP
B10: SPRR3_HUMAN (protein, UniProt Q9UBC9 2-169, looked up)
Small proline-rich protein 3: SSYQQKQTFTPPPQLQQQQVKQPSQPPPQEIFVPTTKEPCHSKVPQPGNTKIPEPGCTKVPEPGCTKVPEPGCTKVPEPGCTKVPEPGCTKVPEPGCTKVPEPGYTKVPEPGSIKVPDQGFIKFPEPGAIKVPEQGYTKVPVPGYTKLPEPCPSTVTPGPAQQKTKQK

tested on: peptides in gingival brush samples; assay: Protein and peptide profiling of gingival brush samples (LC-MS/MS), TABLE 23; type: in vivo, human; conditions: control regimen, baseline; pooled gingival brush samples, LC-MS/MS

Point of comparison: B7, “Mean CntlBsl (peptide abundance)” value 7882.5. Against it:
- B1 — lower, 671.5
- B2 — higher, 14492.1
- B3 — higher, 18752.3
- B4 — lower, 1774.9
- B5 — higher, 37038.8
- B6 — higher, 221041.9
- B8 — higher, 16544.0
- B9 — higher, 57228.2
- B10 — higher, 167604.6

same assay, conditions: control regimen, week 3; pooled gingival brush samples, LC-MS/MS

Point of comparison: B2, “Mean CntlWk3 (peptide abundance)” value 21720.3. Against it:
- B1 — lower, 1401.6
- B3 — higher, 25742.5
- B4 — lower, 3512.2
- B5 — higher, 76294.9
- B6 — higher, 341085.6
- B7 — lower, 10686.9
- B8 — higher, 25073.8
- B9 — higher, 65066.6
- B10 — higher, 348856.5

same assay, conditions: treatment regimen, baseline; pooled gingival brush samples, LC-MS/MS

Point of comparison: B4, “Mean TrtBsl (peptide abundance)” value 1282.9. Against it:
- B1 — lower, 528.9
- B2 — higher, 18881.3
- B3 — higher, 19378.8
- B5 — higher, 58040.2
- B6 — higher, 257150.7
- B7 — higher, 5558.2
- B8 — higher, 12335.0
- B9 — higher, 62030.8
- B10 — higher, 212243.1

same assay, conditions: treatment regimen, week 3; pooled gingival brush samples, LC-MS/MS

Point of comparison: B4, “Mean TrtWk3 (peptide abundance)” value 3282.4. Against it:
- B1 — lower, 1816.3
- B2 — higher, 33124.8
- B3 — higher, 28463.8
- B5 — higher, 104244.7
- B6 — higher, 394704.2
- B7 — higher, 10917.0
- B8 — higher, 31865.2
- B9 — higher, 82870.1
- B10 — higher, 394037.6

Source: patent US20180320217A1, “METHODS FOR SAMPLING AND MEASURING ORAL LAVAGE PROTEINS” (The Procter & Gamble Company, priority 2017, published 2018)
